The results in this text go back to US20140178390A1.

Chains of the proteins cited; added tags and fusions are not shown. Lines headed by an entry give the natural chain unless they say otherwise; changes in a name come on top.
UniProt P25106: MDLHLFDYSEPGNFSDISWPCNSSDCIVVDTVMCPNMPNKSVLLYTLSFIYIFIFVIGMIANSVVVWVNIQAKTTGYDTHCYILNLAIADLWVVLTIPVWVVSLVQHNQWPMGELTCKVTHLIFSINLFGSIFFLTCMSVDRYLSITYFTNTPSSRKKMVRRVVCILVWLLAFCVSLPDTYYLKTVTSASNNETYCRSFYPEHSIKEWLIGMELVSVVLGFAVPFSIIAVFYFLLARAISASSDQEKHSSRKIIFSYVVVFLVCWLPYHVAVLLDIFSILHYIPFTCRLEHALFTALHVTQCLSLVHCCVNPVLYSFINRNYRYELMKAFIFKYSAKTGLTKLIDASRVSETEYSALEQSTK

Results are given in words; binding and its absence hold for the method and conditions named. Some entries that bind do so weakly or less than the wild type.

The experiment deals with Human CXCR7 (human) (UniProt P25106). The experiment in a line: [125I]-CXCL12 displacement by cold chemokine (10^-7 M) on head and neck cancer cells.

B1: CXCL11 (ligand, UniProt O14625 22-94, looked up)
chain: FPMFKRGRCLCIGPGVKAVKVADIEKASIMYPSNNCDKIEVIITLKENKGQRCLNPKSKQARLIIKKVERKNF
With B1, the binding entry is on record as “binds”.
